PubChem BioAssay AID504791 – Drosophila RNAi Screening Center – 2011
The screen tested about 23,000 reagents; this is a random part of those with a known target gene and a result. Over the whole deposit, 199 (0.86%) are marked active. 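Plate-scaled ratios behind the calls are not deposited; printed light signals are raw; many rows marked increased or decreased are still called inactive.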 Entries without a mark were called inactive. Reagents against one gene are numbered here. Names joined by + are all predicted targets of the reagent. Reagent sequences are not shown. Not given: the direction of the score.

Purpose: 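Factors in Argonaute-based small RNA production and activity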 (primary screen)
System: Drosophila S2-derived reporter cells
Reagent: long dsRNA against Drosophila genes, about 150-250 ng dsRNA per well (siRNA assay); about 80-120 ng (miRNA assay)
Timing: about 5 days (siRNA assay); about 4 days (miRNA assay)
Treatment: copper sulfate induction of reporters: 25 µM (siRNA assay); 200 mM stated (miRNA assay), 1-2 days before reading
Detection: 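Per-well ratio of Renilla over firefly light, expressed relative to that plate's average ratio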
Active means: 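a well was a first-pass pick when its plate-scaled ratio rose above 1.5 (siRNA assay) or 1.6 (miRNA assay), or dropped below 0.6; a gene counted only if two separate dsRNAs agreed on retest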

| gene knocked down | reagent | stable siRNA reporter change | miRNA reporter change | stable assay Renilla, run 1 (luminescence) | stable assay firefly, run 1 (luminescence) |
| --- | --- | --- | --- | --- | --- |
| CG4714 | 1 | – | – | 7399 | 5.54e5 |
| CG16896 | 1 | – | – | 14181 | 2.13e6 |
| Tmtc1 | 1 | – | – | 4684 | 3.03e5 |
| Tmtc1 | 2 | – | – | 5671 | 4.33e5 |
| Tmtc1 | 3 | – | – | 6763 | 3.87e5 |
| Tmtc1 | 4 | – | – | 7048 | 4.73e5 |
| CG7888 | 1 | – | – | 6923 | 4.65e5 |
| luna | 1 | – | – | 6535 | 3.31e5 |
| luna | 2 | reporter ratio raised past the hit cutoff | – | 6019 | 1.95e5 |
| luna | 3 | – | – | 4807 | 4.07e5 |
| Hsc70-3 | 1 | – | – | 4236 | 4.52e5 |
| Rab9Db + Rab9Fa | 1 | – | – | 5604 | 4.76e5 |
| org-1 | 1 | – | – | 4815 | 2.14e5 |
| org-1 | 2 | – | – | 3936 | 4.57e5 |
| Bet1 | 1 | – | – | 6267 | 3.47e5 |
| CG15278 | 1 | – | – | 7982 | 5.05e5 |
| gry | 1 | – | – | 3952 | 4.67e5 |
| gry | 2 | – | – | 7399 | 5.44e5 |
| Ugt35E2 | 1 | – | – | 4863 | 3.48e5 |
| tomboy20 | 1 | – | – | 6955 | 3.33e5 |
| Hsc70-5 | 1 | – | – | 6198 | 4.15e5 |
| Fer3HCH | 1 | – | – | 6259 | 3.97e5 |
| Nup58 | 1 | – | – | 5947 | 2.65e5 |
| mRpL39 | 1 | – | – | 7086 | 3.90e5 |
| CG3634 | 1 | – | – | 6547 | 4.46e5 |
| MTPAP | 1 | – | – | 6040 | 4.19e5 |
| CG12708 | 1 | – | – | 4491 | 4.45e5 |
| Rab3-GEF | 1 | – | – | 4884 | 3.71e5 |
| Rab3-GEF | 2 | – | – | 4287 | 3.30e5 |
| Rab3-GEF | 3 | – | – | 4063 | 2.62e5 |
| CG42329 | 1 | – | – | 7530 | 4.13e5 |
| CG42329 | 2 | – | – | 7250 | 3.64e5 |
| Gfat1 | 1 | – | – | 8077 | 5.65e5 |
| obst-A | 1 | – | – | 7498 | 3.54e5 |
| CG42663 | 1 | – | – | 6894 | 3.37e5 |
| CG42663 | 2 | – | – | 4496 | 3.43e5 |
| Hr38 | 1 | reporter ratio raised past the hit cutoff | – | 5482 | 1.82e5 |
| Hr38 | 2 | – | – | 6034 | 3.78e5 |
| Oatp58Da | 1 | – | – | 7080 | 5.03e5 |
| CG33191 + Pif1B | 1 | – | – | 5568 | 3.47e5 |
| RpL3 + CG6693 | 1 | – | – | 8114 | 5.39e5 |
| CG30472 | 1 | – | – | 4728 | 4.93e5 |
| CG9902 | 1 | – | – | 6247 | 4.87e5 |
| ptc | 1 | – | – | 5227 | 6.05e5 |
| ptc | 2 | – | – | 5647 | 3.67e5 |
| C3G | 1 | – | – | 5815 | 5.09e5 |
| C3G | 2 | – | – | 7075 | 3.95e5 |
| C3G | 3 | – | – | 9158 | 5.72e5 |
| C3G | 4 | – | – | 5127 | 4.18e5 |
| CG12099 | 1 | – | – | 6758 | 3.73e5 |
| Ssu72 | 1 | – | – | 6303 | 6.09e5 |
| CG13003 | 1 | – | – | 5688 | 4.34e5 |
| CG5726 | 1 | reporter ratio raised past the hit cutoff (active) | reporter ratio raised past the hit cutoff | 11460 | 2.69e5 |
| CG5726 | 2 | – | reporter ratio raised past the hit cutoff (active) | – | – |
| alpha-Man-IIa | 1 | – | – | 6671 | 3.46e5 |
| Nepl3 | 1 | – | reporter ratio raised past the hit cutoff | 15251 | 6.14e5 |
| stumps | 1 | – | – | 4619 | 3.55e5 |
| stumps | 2 | – | – | 8318 | 3.59e5 |
| stumps | 3 | – | – | 9254 | 4.53e5 |
| Elp2 | 1 | – | – | 10354 | 6.25e5 |
| lqf | 1 | – | – | 8646 | 3.65e5 |
| mRpS18A | 1 | – | – | 6259 | 4.18e5 |
| CG30479 | 1 | – | – | 7035 | 4.17e5 |
| Nagk | 1 | – | – | 8424 | 4.25e5 |
| CG31097 | 1 | – | – | 6974 | 2.96e5 |
| spd-2 | 1 | – | – | 11218 | 4.52e5 |
| CG17597 | 1 | – | – | 7495 | 1.73e6 |
| Ankle2 | 1 | – | – | 7494 | 6.42e5 |
| Ankle2 | 2 | – | – | 4775 | 4.36e5 |
| CG4025 | 1 | – | – | 5219 | 3.13e5 |
| CG34382 | 1 | – | – | 4660 | 4.58e5 |
| CG34382 | 2 | – | – | 6698 | 4.20e5 |
| CG34382 | 3 | – | – | 7555 | 4.02e5 |
| CG15021 | 1 | – | – | 4480 | 3.95e5 |
| CG10041 | 1 | – | – | 7962 | 5.07e5 |
| CG5770 | 1 | – | – | 9765 | 3.64e5 |
| Cpr78Cc | 1 | – | – | 7588 | 4.92e5 |
| stx | 1 | – | – | 3971 | 2.60e5 |
| stx | 2 | – | – | 4388 | 2.97e5 |
| stx | 3 | – | – | 7172 | 4.65e5 |
| CG9973 (retired record) | 1 | – | – | 6070 | 2.96e5 |
| pio | 1 | – | reporter ratio raised past the hit cutoff | 50540 | 2.00e6 |
| Pdh | 1 | – | – | 8190 | 3.49e5 |
| Cpr92A | 1 | – | – | 7059 | 4.03e5 |
| l(2)k05911 | 1 | – | – | 3568 | 3.69e5 |
| CG10395 | 1 | – | – | 10174 | 1.55e6 |
| qua | 1 | – | – | 6770 | 3.78e5 |
| bft (retired record) | 1 | – | – | 8123 | 4.27e5 |
| Rpp14b | 1 | – | – | 6942 | 4.39e5 |
| CG6791 | 1 | reporter ratio raised past the hit cutoff | – | 13192 | 4.22e5 |
| GXIVsPLA2 | 1 | – | – | 8789 | 3.49e5 |
| Slob (retired record) | 1 | – | – | 93042 | 1.87e5 |
| CG14451 | 1 | – | – | 7370 | 3.95e5 |
| CG14569 | 1 | – | – | 8678 | 4.27e5 |
| Sac1 | 1 | – | – | 10569 | 5.22e5 |
| CG3552 | 1 | – | – | 5878 | 3.12e5 |
| CG32588 | 1 | – | – | 8693 | 6.23e5 |
| CG34136 | 1 | – | – | 6494 | 5.39e5 |
| Bdbt | 1 | – | – | 9393 | 3.33e5 |
| RabX4 | 1 | – | – | 9294 | 5.54e5 |
| CG2641 | 1 | – | – | 6831 | 4.19e5 |
| Irp-1B | 1 | – | – | 6867 | 4.20e5 |
| CG33469 | 1 | – | – | 3924 | 3.12e5 |
| Fdx2 | 1 | – | – | 6450 | 4.14e5 |
| Hem | 1 | – | reporter ratio lowered past the hit cutoff | 7639 | 4.50e5 |
| CR41501 | 1 | – | – | 5442 | 3.73e5 |
